Data as given in PubChem BioAssay AID1259254 (NCATS, 2017)
The whole screen tested about 59,000 reagents; this is a random part of them. In the full data, about 1,550 (2.6%) were called active. 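G2 share is only a proxy for re-replication; each gene was hit by three separate siRNAs, and active genes were retested.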 Raw values are not corrected between plates. Unmarked entries are inactive. The numbers tell different reagents against one gene apart. Not stated in the record: the amount of reagent.

Test: 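Finding genes that stop cells copying their DNA twice in one cycle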 (primary screen)
Cells: human HCT116 colorectal cancer cells
Reagents: single siRNA against human genes
Duration: 3 days
Detection: 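Nuclei stained with Hoechst and imaged; cell-cycle phase assigned by DNA content; G2 share scaled per plate, non-targeting siRNA 0%, GMNN siRNA 100%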
Scale: G2 robust z-score and G2 cells, % of GMNN control: higher = more G2 cells, more excess DNA replication; raw share of cells in G2: higher = larger share of cells with G2 DNA content
Call rule: 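An siRNA counts as active if its G2 robust z-score lies at least 5 MADs above the screen median; here such calls match roughly 38% of GMNN control or more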

gene symbol	siRNA no.	G2 robust z-score	G2 cells, % of GMNN control	raw share of cells in G2 (%)
LBR (lamin B receptor)	1	-0.0828	2.38	6.42
LBR (lamin B receptor)	2	1.92	16.5	8.63
LBR (lamin B receptor)	3	1.24	11.7	9.87
RTBDN (retbindin)	1	-0.1	2.26	3.09
RTBDN (retbindin)	2	-1.09	-4.71	2.54
RTBDN (retbindin)	3	1.08	10.6	6.59
PVR (PVR cell adhesion molecule)	1	0.64	7.47	7.55
PVR (PVR cell adhesion molecule)	2	0.0298	3.18	5.89
PVR (PVR cell adhesion molecule)	3	-0.19	1.63	4.69
LINC01913 (long independently transcribed non-coding RNA 1913)	1	-0.114	2.16	4.51
LINC01913 (long independently transcribed non-coding RNA 1913)	2	0.127	3.86	5.08
LINC01913 (long independently transcribed non-coding RNA 1913)	3	-0.671	-1.75	3.88
DNAI4 (dynein axonemal intermediate chain 4)	1	-0.416	0.0376	4.46
DNAI4 (dynein axonemal intermediate chain 4)	2	5.18 (active)	39.4	21.5
DNAI4 (dynein axonemal intermediate chain 4)	3	5.67 (active)	42.9	14.1
SULT1C4 (sulfotransferase family 1C member 4)	1	-1.25	-5.79	3.54
SULT1C4 (sulfotransferase family 1C member 4)	2	0.826	8.78	7.1
SULT1C4 (sulfotransferase family 1C member 4)	3	-1.05	-4.41	2.55
NGF (nerve growth factor)	1	-0.686	-1.86	4.64
NGF (nerve growth factor)	2	-0.948	-3.7	4
NGF (nerve growth factor)	3	-0.463	-0.288	3.1
SMIM11 (small integral membrane protein 11)	1	0.808	8.65	6.7
SMIM11 (small integral membrane protein 11)	2	-0.364	0.403	4.44
SMIM11 (small integral membrane protein 11)	3	-0.794	-2.62	2.33
NNAT (neuronatin)	1	-0.312	0.773	3.63
NNAT (neuronatin)	2	1.72	15	11.4
NNAT (neuronatin)	3	-0.612	-1.34	3.69
NLRC4 (NLR family CARD domain containing 4)	1	-0.498	-0.539	5.42
NLRC4 (NLR family CARD domain containing 4)	2	-0.515	-0.654	3.99
NLRC4 (NLR family CARD domain containing 4)	3	0.555	6.87	6.78
G6PC2 (glucose-6-phosphatase catalytic subunit 2)	1	-0.555	-0.941	4.49
G6PC2 (glucose-6-phosphatase catalytic subunit 2)	2	-0.455	-0.233	4.23
G6PC2 (glucose-6-phosphatase catalytic subunit 2)	3	-0.291	0.918	3.77
BDH2 (3-hydroxybutyrate dehydrogenase 2)	1	-0.0884	2.35	7.46
BDH2 (3-hydroxybutyrate dehydrogenase 2)	2	-0.609	-1.32	3.78
BDH2 (3-hydroxybutyrate dehydrogenase 2)	3	-0.898	-3.35	3.24
EXD1 (exonuclease 3'-5' domain containing 1)	1	0.777	8.44	6.63
EXD1 (exonuclease 3'-5' domain containing 1)	2	-0.0287	2.77	3.89
EXD1 (exonuclease 3'-5' domain containing 1)	3	0.0885	3.59	3.9

9 successive reagents from above, for reference:
gene symbol	siRNA no.	G2 robust z-score	G2 cells, % of GMNN control	raw share of cells in G2 (%)
DNAI4 (dynein axonemal intermediate chain 4)	1	-0.416	0.0376	4.46
DNAI4 (dynein axonemal intermediate chain 4)	2	5.18 (active)	39.4	21.5
DNAI4 (dynein axonemal intermediate chain 4)	3	5.67 (active)	42.9	14.1
SULT1C4 (sulfotransferase family 1C member 4)	1	-1.25	-5.79	3.54
SULT1C4 (sulfotransferase family 1C member 4)	2	0.826	8.78	7.1
SULT1C4 (sulfotransferase family 1C member 4)	3	-1.05	-4.41	2.55
NGF (nerve growth factor)	1	-0.686	-1.86	4.64
NGF (nerve growth factor)	2	-0.948	-3.7	4
NGF (nerve growth factor)	3	-0.463	-0.288	3.1

Continued.
gene symbol	siRNA no.	G2 robust z-score	G2 cells, % of GMNN control	raw share of cells in G2 (%)
GRP (gastrin releasing peptide)	1	2.19	18.4	13.9
GRP (gastrin releasing peptide)	2	0.552	6.85	6.6
GRP (gastrin releasing peptide)	3	-0.287	0.945	3.89
EDA2R (ectodysplasin A2 receptor)	1	0.391	5.72	6.3
EDA2R (ectodysplasin A2 receptor)	2	-1.02	-4.22	2.85
EDA2R (ectodysplasin A2 receptor)	3	-1.12	-4.89	3.62
MFAP1 (microfibril associated protein 1)	1	-0.452	-0.212	4.88
MFAP1 (microfibril associated protein 1)	2	0.338	5.34	6.33
MFAP1 (microfibril associated protein 1)	3	0.235	4.62	5.03
STON1-GTF2A1L (STON1-GTF2A1L readthrough)	1	-0.084	2.38	5.15
STON1-GTF2A1L (STON1-GTF2A1L readthrough)	2	1.76	15.4	12.5
STON1-GTF2A1L (STON1-GTF2A1L readthrough)	3	1.4	12.8	9.97
HNRNPD (heterogeneous nuclear ribonucleoprotein D)	1	-0.635	-1.5	3.65
HNRNPD (heterogeneous nuclear ribonucleoprotein D)	2	4.75	36.4	19.5
HNRNPD (heterogeneous nuclear ribonucleoprotein D)	3	3.03	24.3	13.9
POLR2K (RNA polymerase II, I and III subunit K)	1	1.52	13.6	8.68
POLR2K (RNA polymerase II, I and III subunit K)	2	0.126	3.85	6.3
POLR2K (RNA polymerase II, I and III subunit K)	3	0.728	8.09	7.77
FHDC1-AS1 (FHDC1 antisense RNA 1)	1	-0.177	1.72	3.8
FHDC1-AS1 (FHDC1 antisense RNA 1)	2	-0.0662	2.5	5.08
FHDC1-AS1 (FHDC1 antisense RNA 1)	3	-0.132	2.04	3.91
GRM5P1 (GRM5 pseudogene 1)	1	-0.851	-3.02	3.54
GRM5P1 (GRM5 pseudogene 1)	2	-0.298	0.868	4.13
GRM5P1 (GRM5 pseudogene 1)	3	-0.691	-1.89	2.77
LIN7A (lin-7 cell polarity scaffold A)	1	0.152	4.04	6.37
LIN7A (lin-7 cell polarity scaffold A)	2	1.38	12.7	9.72
LIN7A (lin-7 cell polarity scaffold A)	3	0.273	4.89	6.46
LOX (lysyl oxidase)	1	8.23 (active)	60.9	29.6
LOX (lysyl oxidase)	2	5.64 (active)	42.6	21.8
LOX (lysyl oxidase)	3	-0.847	-2.99	2.21
